Test results: PubChem BioAssay AID1688 (National Center for Advancing Translational Sciences (NCATS), 2009)
Among all 220,000 compounds or so, about 2,400 (1.1%) were called active. Inconclusive results, whose numbers are uncertain, are shown with a selection of clear calls. Calls follow the shape of the dose curve; as a rule, active = well fitted inhibition curve with a large enough effect; inconclusive = small, poorly fitted or top-dose-only effect, or effect the other way; inactive = no such curve, though single readings can be large or run the other way. Where the call is inconclusive, the potency comes from a doubtful curve fit.

assay: qHTS Multiplex Assay to Identify Dual Action Probes in a Cell Model of Huntington: Aggregate Formation (GFP); settings: PC12 HttQ103-GFP aggregates, Acumen cytometry, 40 h; activity change, negative = inhibition: at 46.1 µM (top of the series) unless noted; also: nearly all actives have a fitted effect of over 60% in size
Summary of the method: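 Multiplexed with ATP-based cell death, this channel scores GFP aggregates in PC12 cells expressing inducible HTTex1-Q103-GFP. Induction used 100 nM tebufenozide; compounds were tested in concentration series.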
% is scaled to controls: 0 for no effect and ±100 for the full control effect; potency is read from the fitted curve at half-maximal effect.

Structure (SMILES) | activity change, negative = inhibition | Potency
Cc1c(C(=O)N/N=C/c2ccc(N(C)C)cc2)[nH]c2ccc(Cl)cc12 | inactive: -7.1% | –
Cc1ccc(S(=O)(=O)N(C)CC(=O)Nc2nc3ccccc3s2)cc1 | – | inconclusive: 22.4 µM [inhibitor, single point]
O=C(O)C12CC3CC(C1)CC(n1ncc(NCc4ccccc4)c(Cl)c1=O)(C3)C2 | inactive: -15% | –
c1cc2c(c(NCc3ccncc3)c1)CCCC2 | – | inconclusive: 20 µM [inhibitor, single point]
Cc1ccc(-n2ncc3c(=O)n(Cc4cccnc4)cnc32)cc1 | – | inconclusive: 35.5 µM [inhibitor, single point]
N#CC(c1cccc(Cl)c1)c1ccc2c(C(F)(F)F)cc(C(F)(F)F)nc2n1 (stereo not drawn) | – | active: 0.891 µM
Cc1cccc(N2CCN(C(=O)C3(S(=O)(=O)c4ccc(Cl)cc4)CC3)CC2)c1C | – | inconclusive: 35.5 µM [inhibitor, single point]
COc1ccc(CCN(C(=S)Nc2ccccc2)C2CC(=O)N(c3ccccc3)C2=O)cc1 (stereo not drawn) | – | inconclusive: 35.5 µM [inhibitor, single point]
Cc1ccc(NC(=O)c2ccc3c(c2)C(=O)N(CC2CCCO2)C3=O)cc1C (stereo not drawn) | inactive: 3.53% [at 9.22 µM] | –
Cc1nnc(NC(=O)CCC(=O)N2CCN(CCc3ccccc3)CC2)s1 | inactive: -1.19% [at 9.22 µM] | –
O=C(CSc1ccc(F)cc1)NCCSc1ccccc1 | – | inconclusive: 17.8 µM [inhibitor, single point]
Cc1cc(C(=O)CN2C(=O)C(=O)N(Cc3ccccc3)C2=O)c(C)n1CC1COc2ccccc2O1 (stereo not drawn) | – | inconclusive: 35.5 µM [inhibitor, single point]
CCOC(=O)C1CCCN(C(=O)Cn2sc3nc(C)cc(C)c3c2=O)C1 (stereo not drawn) | – | inconclusive: 22.4 µM [inhibitor, single point]
Cc1ccc(C2C(C=Nc3c(C)n(C)n(-c4ccccc4)c3=O)=C(c3ccccc3)Oc3ccccc32)cc1 (stereo not drawn) | – | active: 22.4 µM
O=C(Nc1ccc(N2CCOCC2)cc1)Nc1ccc(Cl)c(Cl)c1 | – | inconclusive: 25.1 µM [inhibitor, single point]
COc1ccc(/C=N/NC(=O)c2[nH]nc3c2CCc2ccccc2-3)cc1OC | – | inconclusive: 12.6 µM [activator, single point]
CC(C(=O)NC1CCCc2ccccc21)N1CCN(Cc2ccc3c(c2)OCO3)CC1 (stereo not drawn) | inactive: -15.8% | –
COc1ccc(/C(C)=N/Nc2ncc(Cl)cc2Cl)c(O)c1 | – | inconclusive: 6.31 µM [inhibitor, partial curve]
O=C1CSC(c2ccc3c(c2)OCO3)N1c1ccc(Oc2ccccc2)cc1 (stereo not drawn) | – | inconclusive: 15.8 µM [inhibitor, single point]
CC(C)Oc1ccc(C(=O)CCN2CCCCC2)cc1 | – | inconclusive: 31.6 µM [activator, single point]
CC(C)(C)OC(=O)NCCc1nnc(SCc2ccc(Cl)cc2Cl)o1 | – | inconclusive: 35.5 µM [inhibitor, single point]
CCc1nn(-c2cc(Cl)ccc2OC)c2c1C(=O)CCC2 | – | inconclusive: 11.2 µM [activator, single point]
O=C(O)[C@@H]1CCCN1 | inactive: -13.9% | –

Structure (SMILES) | activity change, negative = inhibition | Potency
CN(C)C=Nc1c(C(=O)c2ccccc2)sc2nccc(N(C)C)c12 | – | active: 6.31 µM
Cn1nc(-c2ccc(C(=O)N3CCN(Cc4ccccc4)CC3)cc2)c2ccccc2c1=O | inactive: -16.7% [at 9.22 µM] | –
Cc1ccc(C(C[N+](=O)[O-])c2c(C)cc3ccccn23)cc1 (stereo not drawn) | – | inconclusive: 11.2 µM [activator, partial curve]
CCCCN(CC)S(=O)(=O)c1ccc(C(=O)N(CCCN(C)C)c2nc3cc(C)cc(C)c3s2)cc1 | – | inconclusive: 25.1 µM [inhibitor, single point]
CC(C)(C)[Si](OCC[C@@H]1C[C@@]1(C)[C@@H](NP(=O)(c1ccccc1)c1ccccc1)c1ccccc1)(c1ccccc1)c1ccccc1 | – | inconclusive: 0.891 µM [inhibitor, full curve, poor fit]
N#CC(C#N)=C1C=C2C=C(N3CCOCC3)CCC2CC1 (stereo not drawn) | – | active: 1.26 µM
Cc1cccc(SCc2noc(C(=O)NCC3CCCO3)c2C(=O)O)c1 (stereo not drawn) | inactive: -24.7% | –
CCN=C1SC(C(=O)Nc2cccc(Cl)c2)CC(=O)N1CC (stereo not drawn) | – | inconclusive: 5.62 µM [activator, single point]
COc1ccc2c(c1)C(C)=CC(C)(C)N2C(=O)Nc1ccccc1 | – | inconclusive: 12.6 µM [activator, partial curve]
CCN1CCN(c2cc(C)c3cc(NC(=S)NCCCN4CCc5ccccc5C4)ccc3n2)CC1 | – | inconclusive: 35.5 µM [inhibitor, single point]
COc1ccc(CN2CCN(c3ccccn3)CC2)cc1OCc1ccccc1 | – | inconclusive: 28.2 µM [inhibitor, single point]
O=C(NP(=O)(N1CCOCC1)N1CCOCC1)C1=C(N2CCOCC2)/C(=C\c2ccccc2)CC1 | inactive: 9.95% | –
COc1ccccc1CNC(=O)CSc1ccccc1 | inactive: 15.3% | –
O=C(CSc1ccc2nnc(-c3ccccn3)n2n1)NCc1ccco1 | – | inconclusive: 35.5 µM [inhibitor, single point]
N#C/C(=C\c1ccc(O)c([N+](=O)[O-])c1)c1nc2ccccc2s1 | – | inconclusive: 14.1 µM [inhibitor, single point]
Nc1nc(F)nc2c1ncn2[C@@H]1O[C@H](CO)[C@@H](O)[C@H]1O | inactive: -5.24% | –
COCCNC(=O)CCCCCN1C(=O)CCC1=O | – | inconclusive: 0.794 µM [inhibitor, single point]
COc1ccc(CC(=O)N2CCOCC2)cc1OC | – | inconclusive: 3.98 µM [inhibitor, partial curve, poor fit]
CCOC(=O)C1=NOC(Cn2cc(C(C)=O)c(=O)[nH]c2=O)C1 (stereo not drawn) | – | inconclusive: 35.5 µM [activator, single point]
COc1ccc(NS(=O)(=O)c2ccc(S(=O)(=O)N3CCCC3)cc2)cc1Cl | – | inconclusive: 12.6 µM [inhibitor, single point]
C=CCNc1ncnc2c1[nH]c1ccc(C)cc12 | – | inconclusive: 15.8 µM [inhibitor, single point]
CCOc1ccc(C(=O)Nc2cccc(-c3ccc4nncn4n3)c2)cc1 | – | inconclusive: 31.6 µM [activator, partial curve]
CCCC(=O)Nc1ccc2nc(SCC(=O)Nc3ccc(N4CCOCC4)c(Cl)c3)sc2c1 | – | inconclusive: 1 µM [activator, full curve, poor fit]

Structure (SMILES) | activity change, negative = inhibition | Potency
COc1ccc(C(O)(CCc2ccccc2)CCN2CCCCC2)cc1 (stereo not drawn) | inactive: 3.84% | –
CCCn1c(-c2nonc2N)nc2ccccc21 | – | active: 12.6 µM
Cc1onc(-c2c(Cl)cccc2Cl)c1C(=O)Nc1c(C)n(C)n(-c2ccccc2)c1=O | – | inconclusive: 0.708 µM [inhibitor, partial curve]
COc1ccc(CNCC(O)(c2ccc(Cl)cc2)c2ccc(Cl)cc2)cc1 | – | inconclusive: 22.4 µM [inhibitor, single point]
Cc1ccc(S(=O)(=O)n2nc(OC(=O)C3CCCCC3)cc2N)cc1 | inactive: -13% | –
O=C(c1ccccc1)[C@@H]1[C@@H](C(=O)c2ccc(F)cc2)[C@@]2(C(=O)Nc3ccccc32)[C@H]2c3ccccc3C=CN12 | – | inconclusive: 35.5 µM [inhibitor, single point]
CC1CNCCN1S(=O)(=O)c1cccc2cnccc12 (stereo not drawn) | – | inconclusive: 10 µM [inhibitor, partial curve, poor fit]
O=C(CCn1c(=O)sc2ccccc21)NCc1ccccc1 | – | inconclusive: 3.55 µM [activator, partial curve]
COCc1cc(C)nc(OCC(=O)N/N=C/c2ccccc2O)c1C#N | – | active: 11.2 µM
COc1ccccc1O | inactive: 7.24% | –
O=C(c1cc(COc2c(F)cccc2F)on1)N1CCC(c2ccncc2)CC1 | – | active: 20 µM
CCn1cc(C(=O)O)c(=O)c2cc(F)c(N3CCN(C(=S)NC(=O)c4ccc(Br)cc4)CC3)cc21 | – | inconclusive: 35.5 µM [inhibitor, single point]
Cc1cc(C(=O)NCCCn2ccnc2)sc1-c1ccccc1 | – | inconclusive: 35.5 µM [inhibitor, single point]
CCOc1cccc(CNc2ccc(O)cc2)c1OCc1ccc(Cl)cc1 | inactive: 23% | –
CC(C)C[C@H](NC(=O)OC(C)(C)C)C(=O)N/N=C/C1=Cc2ccccc2OC1C (stereo partly drawn) | – | inconclusive: 22.4 µM [inhibitor, single point]
O=c1cc(NS(=O)(=O)c2ccccc2)nc(SCc2ccc(Cl)cc2)[nH]1 | inactive: -9.94% | –
O=C(CN1C(=O)CC(c2ccco2)Sc2ccccc21)Nc1ccc2c(c1)OCCO2 (stereo not drawn) | inactive: -1.57% | –
CC(=O)c1c(C)[nH]c(C(=O)NCc2ccccc2Cl)c1C | – | inconclusive: 14.1 µM [inhibitor, single point]
CC1(C)Cc2c(sc3[nH]c(=S)n(Cc4ccco4)c(=O)c23)CO1 | – | inconclusive: 11.2 µM [activator, partial curve]
CS(=O)(=O)N(CC(O)CON=C1c2ccccc2-c2ccccc21)c1ccc(F)cc1 (stereo not drawn) | – | inconclusive: 35.5 µM [inhibitor, single point]
CCOC(=O)C1(S(=O)(=O)c2ccc(Cl)cc2)CCN(Cc2ccc(Cl)cc2)CC1 | – | inconclusive: 35.5 µM [inhibitor, single point]
COCCCNc1oc(-c2ccccc2F)nc1C#N | – | inconclusive: 35.5 µM [inhibitor, single point]
